This data set is described as follows: general procedure: Fmoc solid-phase peptide synthesis; 2-Chlorotrityl resin (1.1 mmol g-1 loading capacity); HCTU; DMTMM for cyclisation. As to conditions: late stage modification step.

In turn, “Cyclo(L-Trp–D-Leu–L-Lys–D-Leu–L-Trp–D-Leu–L-Lys–D-Leu)” gave a step yield of 95%.

The record behind these values is PMC6544120 (Chemical Science, 2019).
